Drawing on paper PMC6003631, this text covers binding for one substance.

Protein sequences, listed by entry. Tags and fused reporters are not part of them.
UniProt P35372: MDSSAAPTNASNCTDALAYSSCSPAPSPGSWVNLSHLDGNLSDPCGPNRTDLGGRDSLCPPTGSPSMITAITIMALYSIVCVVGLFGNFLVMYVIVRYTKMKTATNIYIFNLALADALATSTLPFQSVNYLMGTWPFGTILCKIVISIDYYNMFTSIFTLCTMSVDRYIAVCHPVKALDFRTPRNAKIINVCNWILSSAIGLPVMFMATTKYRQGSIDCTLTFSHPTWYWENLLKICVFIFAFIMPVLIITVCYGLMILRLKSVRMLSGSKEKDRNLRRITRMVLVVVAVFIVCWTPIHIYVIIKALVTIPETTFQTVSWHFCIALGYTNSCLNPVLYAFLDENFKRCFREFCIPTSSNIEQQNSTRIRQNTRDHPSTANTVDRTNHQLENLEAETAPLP
UniProt P32121: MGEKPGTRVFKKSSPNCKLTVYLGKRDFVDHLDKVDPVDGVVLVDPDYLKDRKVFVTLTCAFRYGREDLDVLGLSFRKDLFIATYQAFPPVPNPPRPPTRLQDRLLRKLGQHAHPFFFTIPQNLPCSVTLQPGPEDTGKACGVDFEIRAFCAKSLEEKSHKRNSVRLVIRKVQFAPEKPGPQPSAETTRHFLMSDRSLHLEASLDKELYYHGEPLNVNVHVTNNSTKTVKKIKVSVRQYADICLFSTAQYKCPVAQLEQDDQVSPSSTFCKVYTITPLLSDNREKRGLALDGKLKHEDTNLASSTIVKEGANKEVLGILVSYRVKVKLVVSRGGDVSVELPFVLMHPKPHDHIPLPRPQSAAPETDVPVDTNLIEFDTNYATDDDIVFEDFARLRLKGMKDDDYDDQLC

This experiment deals with human μ receptor-Rluc (human) (UniProt P35372). The experiment is described as follows: FRET or BRET; HEK 293 cells co-transfected with human μ receptor-Rluc and arrestin-3-GFP; BRET at 37°C after 10 min incubation with agonist (DAMGO, morphine or PZM21, 10^-9 - 3 x 10^-5 M).

These are yes or no findings as the source states them, for the method shown. In cells and extracts the contact can be indirect. Some results given as binding are weak or reduced against the parent protein; the word gives no strength.

In the case of “arrestin-3-GFP (from UniProt P32121 1-409)”, the binding entry is listed as “binds”.
